# Experimental data from the supplement of paper PMC9744312.
# Structures can show the parent of a compound that is named as a salt. Some of the results follow. This is a noisy data set.
# System: Peyronie's disease tunica albuginea primary fibroblasts
# Test: inhibition of TGF-beta1-induced alpha-SMA expression (myofibroblast transformation), relative to TGF-beta1-only and untreated controls; higher = stronger inhibition of myofibroblast transformation
# Details: 10 µM; TGF-beta1 10 ng/mL; 72 h
row,Compound,inhibition of TGF-beta1-induced alpha-SMA expression [%]
1,CN(C)N(C)C(=O)[C@@]1(Cc2ccccc2)CCCN(C(=O)[C@@H](Cc2c[nH]c3ccccc23)NC(=O)C(C)(C)N)C1 [Anamorelin],23.6
2,CN1CCN(CCOc2cc(OC3CCOCC3)c3c(Nc4c(Cl)ccc5c4OCO5)ncnc3c2)CC1 [Saracatinib (AZD0530)],> 100
3,O=C(NCC(O)CO)c1c(I)c(C(=O)NCC(O)CO)c(I)c(N(CCO)C(=O)CO)c1I (centres undefined) [Ioversol],10.6
4,CO/N=C(\C(=O)N[C@@H]1C(=O)N2C(C(=O)O)=C(COC(N)=O)CS[C@H]12)c1ccco1 [Cefuroxime sodium],11.6
5,Nc1ccc(S(=O)(=O)Nc2ccnn2-c2ccccc2)cc1 [Sulfaphenazole],-4.07
6,CNC(=O)c1cnn(-c2nc(N)c3ncn([C@@H]4O[C@H](CO)[C@@H](O)[C@H]4O)c3n2)c1 [Regadenoson],20.3
7,CCC(=O)c1c(O)cc(O)cc1O [Flopropione],24.1
8,N#Cc1ccnc(N2C(=O)CC[C@H]2C(=O)N(c2cncc(F)c2)[C@H](C(=O)NC2CC(F)(F)C2)c2ccccc2Cl)c1 [Ivosidenib (AG-120)],26.3
9,CC1Cc2ccccc2N1NC(=O)c1ccc(Cl)c(S(N)(=O)=O)c1 (centres undefined) [Indapamide],2.76
10,CO/N=C(\C(=O)N[C@@H]1C(=O)N2C(C(=O)O)=C(Cn3ccc(=N)n3CCO)CS[C@H]12)c1csc(N)n1 [Cefoselis Sulfate],3.03
11,C[C@H](CCC(=O)O)[C@H]1CC[C@H]2[C@@H]3CC[C@@H]4C[C@H](O)CC[C@]4(C)[C@H]3C[C@H](O)[C@]12C [Deoxycholic acid],59.6
12,Nc1ccc2cc3ccc(N)cc3nc2c1 [Proflavine Hemisulfate],> 100
13,O=C([O-])[O-].[Na+].[Na+] [Sodium carbonate],4.01
14,CC(=O)N1C[C@H](O)C[C@H]1C(=O)O [Oxaceprol],-11.3
15,CO[C@@]1(NC(=O)CSC[C@@H](N)C(=O)O)C(=O)N2C(C(=O)O)=C(CSc3nnnn3C)CS[C@@H]21 [Cefminox Sodium],-4.35
16,CCCCCCCCCCCCCCCC(=O)O[C@@H]1[C@@H](O)[C@@H](O)[C@@H]([C@H](NC(=O)[C@@H]2C[C@@H](CCC)CN2C)[C@H](C)Cl)O[C@@H]1SC [Clindamycin palmitate HCl],24.1
17,N#Cc1cc(-c2n[nH]c(-c3ccncc3)n2)ccn1 [Topiroxostat],3.65
18,Cc1c(F)cc(C(=O)NC2CC2)cc1-c1ccc(C(=O)NCC(C)(C)C)cn1,24.8
19,CC[C@H]1OC(=O)[C@H](C)[C@@H](O[C@H]2C[C@@](C)(OC)[C@@H](O)[C@H](C)O2)[C@H](C)[C@@H](O[C@@H]2O[C@H](C)C[C@H](N(C)C)[C@H]2O)[C@](C)(O)C[C@@H](C)[C@@H]2N[C@@H](COCCOC)O[C@H]([C@H]2C)[C@]1(C)O [Dirithromycin],-12.8

# Sorted by count of non-hydrogen atoms (high to low): part of the list above.
row,Compound,inhibition of TGF-beta1-induced alpha-SMA expression [%]
1,CN(C)N(C)C(=O)[C@@]1(Cc2ccccc2)CCCN(C(=O)[C@@H](Cc2c[nH]c3ccccc23)NC(=O)C(C)(C)N)C1 [Anamorelin],23.6
4,CO/N=C(\C(=O)N[C@@H]1C(=O)N2C(C(=O)O)=C(COC(N)=O)CS[C@H]12)c1ccco1 [Cefuroxime sodium],11.6
18,Cc1c(F)cc(C(=O)NC2CC2)cc1-c1ccc(C(=O)NCC(C)(C)C)cn1,24.8
